Several values for one entry are separate records, joined by “and”; a condition that tells them apart may be missing. Identical values can stand only once. About 17,000 (5.5%) of roughly 310,000 compounds were called active. The shares of active, inactive and inconclusive entries below differ from those in the screen. Calls come from the whole dose curve; as a rule, active = well fitted inhibition curve with a large enough effect; inconclusive = small, poorly fitted or top-dose-only effect, or effect the other way; inactive = no such curve, though single readings can be large or run the other way. A potency beside an inconclusive call is a rough fit, not a confirmed value.
Target: Nuclear receptor ROR-gamma (Mus musculus) (UniProt P51450)
Test: qHTS for inhibitors of ROR gamma transcriptional activity; note: nearly all actives have a fitted effect of over 60% in size
Conditions: Drosophila S2 Gal4-RORgamma UAS-luciferase reporter, 20 h; activity change, negative = inhibition: at 53.6 µM (top of the series)
Summary of the method: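 Luciferase reporter read in Schneider cells carrying Gal4-RORγ (mouse) and UAS-Photinus luciferase; cells given compound 1 h before 700 uM copper sulfate induction, then incubated 20 h at ambient temperature.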
% is set by controls: 0 for no effect and ±100 for the full control effect; potency is the fitted concentration of half-maximal effect.

By UniProt entry, the sequences of proteins in these tests, tags left out. Where a name states a change or a piece, a line headed by the entry shows the natural chain unless it says otherwise.
UniProt P51450: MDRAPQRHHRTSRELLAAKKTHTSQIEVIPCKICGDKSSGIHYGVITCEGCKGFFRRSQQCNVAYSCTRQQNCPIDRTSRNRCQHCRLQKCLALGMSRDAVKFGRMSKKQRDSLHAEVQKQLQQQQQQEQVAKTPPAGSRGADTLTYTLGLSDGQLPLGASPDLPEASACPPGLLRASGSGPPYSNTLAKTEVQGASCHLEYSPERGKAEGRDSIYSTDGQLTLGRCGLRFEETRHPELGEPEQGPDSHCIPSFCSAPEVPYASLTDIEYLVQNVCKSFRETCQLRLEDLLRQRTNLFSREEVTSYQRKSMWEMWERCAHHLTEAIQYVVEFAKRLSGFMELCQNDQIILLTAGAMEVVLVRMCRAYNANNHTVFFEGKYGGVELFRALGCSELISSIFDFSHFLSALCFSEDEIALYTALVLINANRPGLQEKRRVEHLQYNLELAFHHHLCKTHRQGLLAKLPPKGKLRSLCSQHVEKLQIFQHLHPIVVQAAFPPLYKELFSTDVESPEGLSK

| Structure (SMILES) | Potency | activity change, negative = inhibition |
| --- | --- | --- |
| O=C(/C=C/c1ccc(F)cc1)NC(=S)N1CCN(c2ccccn2)CC1 | active: 2.51 µM |  |
| Cc1ccccc1C(=O)NNC(=S)Nc1cccc(C(F)(F)F)c1 | inconclusive: 35.5 µM [inhibitor, single point] |  |
| CC1CCCN(C(=O)c2ccc3c(=O)n(Cc4ccc5c(c4)OCO5)c(=S)[nH]c3c2)C1 (centres undefined) | active: 7.94 µM |  |
| O=C(Nc1ccc(Cl)cc1)N(Cc1nc2ccccc2c(=O)[nH]1)Cc1cccs1 | inconclusive: 25.1 µM [inhibitor, single point] |  |
| CC(C)CC(=O)NC(=S)Nc1ccc(NC(=O)c2cccs2)cc1 | inconclusive: 1.12 µM [inhibitor, full curve, poor fit] |  |
| NC(=O)CSc1nnc(-c2ccccn2)n1Cc1ccco1 | inactive |  |
| CN(CC(=O)Nc1ccc(F)c(Cl)c1)S(=O)(=O)c1cccc2nsnc12 | inactive |  |
| O=S(=O)(Nc1cccnc1Cl)c1ccc(-c2ccccc2)cc1 | inconclusive: 20 µM [activator, single point] |  |
| Cc1cc(OCC(=O)Nc2cc(C(C)(C)C)on2)ccc1[N+](=O)[O-] | inconclusive: 17.8 µM [activator, single point] |  |
| CCn1c(/C=C/c2ccccc2)nc2ccccc21 | active: 15.8 µM |  |
| Cc1ccc(C(=O)NC(c2ccccc2)C(Cl)Cl)cc1 (centres undefined) | inconclusive: 14.1 µM [activator, single point] |  |
| COc1cccc(OC)c1C1=Nn2c(nnc2-c2ccccc2C)SC1 | inactive |  |
| COc1cc2nc(=S)n3[nH]c(CCn4c(C)nc5ccccc54)nc3c2cc1OC | inconclusive: 3.16 µM [inhibitor, partial curve] |  |
| CC(C)(C)C(=O)NC(=S)NCc1ccccc1 | active: 7.08 µM |  |
| O=C(C1CCC1)N1CCc2cc(S(=O)(=O)NCc3ccco3)ccc21 | inconclusive: 11.2 µM [activator, single point] |  |
| CCn1c(=O)c(C(=O)NNC(=O)c2ccc(Cl)cc2Cl)c(O)c2ccccc21 | active: 10 µM |  |
| Nc1nc2ccc([N+](=O)[O-])cc2[nH]1 | inactive |  |
| CCOC(=O)CSC1=NC(=O)/C(=C\c2ccc(Cl)cc2)S1 | inactive |  |
| Cc1ccc(Cn2cc(/C=C/C(=O)O)c(-c3ccccc3)n2)cc1 | inconclusive: 35.5 µM [activator, single point] |  |
| Cc1cnc(NC(=O)c2sc3ccccc3c2Cl)s1 | active: 2 µM |  |
| Cc1cccc(NC(=S)NNC(=O)c2ccc(Br)o2)c1 | inconclusive: 0.631 µM [inhibitor, full curve, poor fit] |  |
| CCCNC(=S)NC1CCCC1 | active: 11.2 µM |  |
| O=C(COc1ccc(Cl)cc1Cl)NCCCCc1ccccc1 | inactive |  |
| CCNC(=S)N1CCC(c2nc3ccccc3s2)CC1 | inactive |  |
| Oc1ccccc1C1OCC2(CO1)COC(c1ccccc1O)OC2 (centres undefined) | inactive |  |

| Structure (SMILES) | Potency | activity change, negative = inhibition |
| --- | --- | --- |
| O=C(Nc1ccccc1Oc1ccccc1)C1CCCC1 | inactive |  |
| CC1c2ccsc2CCN1S(=O)(=O)c1ccccc1 (centres undefined) | inconclusive: 12.6 µM [inhibitor, single point] |  |
| Cc1cc(C(C#N)c2cccc(Cl)c2)n2ncnc2n1 (centres undefined) | inactive |  |
| COC(=O)/C=c1\sc2ncnn2c1=O | inconclusive: 12.6 µM [inhibitor, single point] |  |
| C[C@@H](C(=O)NCc1ccc(S(C)(=O)=O)cc1)[C@H]1C[C@]1(C)[C@H](NC(=O)OCc1ccccc1)c1ccccc1 | active: 11.2 µM and active: 8.91 µM |  |
| O=C(c1ccc(S(=O)(=O)NCc2ccco2)cc1)N1CCN(Cc2ccc3c(c2)OCO3)CC1 | inconclusive: 0.708 µM [inhibitor, single point] |  |
| Cc1ccc(-c2nc(CS(=O)CC(=O)N3CCN(c4ccccc4)CC3)c(C)o2)cc1 (centres undefined) | inactive |  |
| CCCOc1cccc(-c2cc(C(=O)NNC(=S)NCC)c3ccccc3n2)c1 | inconclusive: 20 µM [inhibitor, partial curve, poor fit] |  |
| Cc1cc(NC(=S)Nc2cccc3ccccc23)n[nH]1 | active: 2.82 µM |  |
| Cc1[nH]c2ccccc2c1/C=N/Nc1nncn1N | inconclusive: 17.8 µM [inhibitor, single point] |  |
| Cc1cc(C(F)(F)F)nn1Cc1n[nH]c(=S)n1Cc1ccccc1 | inconclusive: 7.08 µM [inhibitor, full curve, poor fit] |  |
| CCC(O)c1c(-c2ccccc2)nn(C)c1Cl (centres undefined) | inactive |  |
| Cc1ccc(CN(CC2CCCO2)C(=O)CN2C(=O)C(C(C)C)Oc3ccccc32)o1 (centres undefined) |  | inactive: -1.09% [at 10 µM] |
| C=CCN1C(=O)C2(c3ccccc31)C1CCCC=C1C(C#N)=C(N)C2(C#N)C#N (centres undefined) | inconclusive: 31.6 µM [inhibitor, single point] |  |
| CCC(=O)Nc1nc(-c2ccc3c(c2)OCCO3)cs1 | inconclusive: 11.2 µM [activator, partial curve] |  |
| COc1ccc(C)cc1NC(=O)C1CCN(C(=O)c2ccc(C(C)(C)C)cc2)CC1 | inactive |  |
| CCOC(=O)[C@@H]1[C@H]2COc3cc(OC)ccc3[C@@H]2N2C(=O)N(c3ccc(Cl)cc3)C(=O)[C@@]12C | active: 8.91 µM |  |
| CC(C)(C)NC(=O)NC(=O)CN1CCN(c2cccc(Cl)c2)CC1 | inconclusive: 6.31 µM [activator, single point] |  |
| CCCCCCCCCCCCCCC[C@H](O)[C@H](N)CO | inconclusive: 35.5 µM [inhibitor, single point] |  |
| CCOc1ccc(OCC)c(NC(=O)CN(c2ccc(C)cc2)S(=O)(=O)c2c(C)noc2C)c1 | inconclusive: 31.6 µM [activator, single point] |  |
| CCC1=NN(C(=O)C(=O)Nc2ccccc2OC)C(O)(C(F)(F)F)C1 (centres undefined) | active: 12.6 µM |  |
| CC1(C)CC(=O)C2=C(C1)Nc1ccccc1N=C2 | inconclusive: 0.158 µM [inhibitor, full curve, poor fit] |  |
| Cc1cc[n+](-c2[nH]c(=O)sc2/C=N/N=C(\[O-])c2ccncc2)cc1 | inconclusive: 22.4 µM [inhibitor, single point] |  |
| CC(Sc1ncnc2sc(-c3ccccc3)cc12)C(N)=O (centres undefined) | active: 12.6 µM |  |
| CC(NC(=O)c1ccc(CS(=O)(=O)Cc2ccccc2F)o1)c1ccc2c(c1)OCCO2 (centres undefined) | inconclusive: 17.8 µM [activator, single point] |  |

| Structure (SMILES) | Potency | activity change, negative = inhibition |
| --- | --- | --- |
| CCCCC/C=N\NC(=O)Cc1ccc([N+](=O)[O-])cc1 | inconclusive: 35.5 µM [inhibitor, single point] |  |
| Cc1nn(CC(C)C)c(=S)[nH]c1=O | inconclusive: 35.5 µM [inhibitor, single point] |  |
| CC(NC(=O)CCCCCN1C(=O)c2ccccc2C1=O)c1ccc2c(c1)CCCC2 (centres undefined) | inconclusive: 17.8 µM [activator, single point] |  |
| CN(C(=O)COC(=O)c1ccccc1Cc1ccccc1)C1CCS(=O)(=O)C1 (centres undefined) | inactive |  |
| Cc1ccccc1-n1c(C)n[nH]c1=S | inconclusive: 14.1 µM [inhibitor, single point] |  |
| CC(=O)NS(=O)(=O)c1ccc(NC(=O)CCc2ccccc2)cc1 | inactive |  |
| COc1ccccc1OCCC(=O)OCC(=O)NC(C)c1ccccc1 (centres undefined) | inactive |  |
| CCOC1CC(C)(C)NC(=S)N1 (centres undefined) | inactive |  |
| CCn1c(SCC(N)=O)nnc1-c1ccc2[nH]c(C)c(C)c2c1 | inactive |  |
| CCOC(=O)N1CCC(NC(=O)c2cc(S(=O)(=O)NCCc3ccccc3)ccc2F)CC1 | inconclusive: 15.8 µM [activator, single point] |  |
| COc1ccc(/C=C/C(=O)NC(=S)NNC(=O)Cc2cccs2)cc1OC | inconclusive: 22.4 µM [inhibitor, single point] |  |
| CCc1cccc(NS(=O)(=O)c2csc(C(N)=O)c2)c1 | inconclusive: 11.2 µM [activator, single point] |  |
| CCOc1cc(NC(=S)NCCCN2CCOCC2)c(OCC)cc1NC(=O)c1ccccc1C | inconclusive: 14.1 µM [inhibitor, single point] |  |
| CC(=O)c1ccc(NC(=S)N2CC(C)CC(C)C2)cc1 (centres undefined) | inconclusive: 22.4 µM [inhibitor, single point] |  |
| Cc1ccc(C)c(S(=O)(=O)N2CCC(c3nc4c(nnn4Cc4ccc5c(c4)OCCO5)c(=O)[nH]3)CC2)c1 | inconclusive: 20 µM [activator, single point] |  |
| COCC(C)N=C1NN=C(c2ccc(NC(C)=O)cc2)CS1 (centres undefined) | inconclusive: 12.6 µM [inhibitor, partial curve, poor fit] |  |
| Cc1cccc(N(C(=O)c2snc(C(N)=O)c2N)C(C(=O)NCc2ccccc2)c2ccncc2)c1 (centres undefined) | inconclusive: 15.8 µM [activator, single point] |  |
| CCOc1ccc2c(c1)C(C)=CC(C)(C)N2C(=O)Nc1ccccc1 | inconclusive: 35.5 µM [inhibitor, single point] |  |
| N#Cc1ccc(CSc2nnc(-c3ccccn3)n2-c2ccc(Cl)cc2)cc1 | inconclusive: 14.1 µM [activator, single point] |  |
| CCOc1cc(/C=C/c2ccc3cccc([N+](=O)[O-])c3n2)cc(Cl)c1O | inconclusive: 12.6 µM [activator, single point] |  |
| CCOc1ccccc1NC(=O)c1nc(S(=O)(=O)Cc2ccccc2)ncc1Cl | active: 10 µM |  |
| Cc1cccc(C)c1-n1c(C)cc(/C=N/NC(=O)CSc2ncccn2)c1C | inconclusive: 35.5 µM [inhibitor, single point] |  |
| Cc1cc(C)n(-c2nnc3n2N=C(c2c[nH]c4ccccc24)CS3)n1 | inactive |  |
| O=C(CCn1nnnc1CN1CCOCC1)N1CCC(c2cccc(Cl)c2)C1 (centres undefined) | inactive |  |

Reference: PubChem BioAssay AID2551 (National Center for Advancing Translational Sciences (NCATS), 2010)
